These are yes or no findings as the source states them, for the method shown. Binding seen in cells or lysates may run through a third protein. A yes stands for co-enrichment or nearness to the bait. Other partners may have been found.
Molecular target: T1, TBC1D21 (bait of the co-IP and nano LC-MS/MS screen) (UniProt Q8IYX1)
T1 sequence: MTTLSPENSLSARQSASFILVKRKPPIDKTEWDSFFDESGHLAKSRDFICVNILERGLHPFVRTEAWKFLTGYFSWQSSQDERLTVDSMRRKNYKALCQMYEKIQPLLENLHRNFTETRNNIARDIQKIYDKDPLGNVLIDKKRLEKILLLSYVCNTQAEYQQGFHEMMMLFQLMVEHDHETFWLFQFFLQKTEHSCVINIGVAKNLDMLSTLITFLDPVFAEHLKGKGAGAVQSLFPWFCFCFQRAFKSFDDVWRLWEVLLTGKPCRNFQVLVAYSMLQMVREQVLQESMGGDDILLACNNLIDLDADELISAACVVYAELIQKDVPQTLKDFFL
Assay: affinity purification with mass spectrometry; co-IP of TBC1D21 followed by nano LC-MS/MS, as described previously (refs. 9, 10)

- binding: binds
Substance: Rap1 (found in the TBC1D21 co-IP by nano LC-MS/MS)

From PMC6274753
